# Data published in ChEMBL document CHEMBL4513149, “CO-ADD screening of MMV (CH) - MMV compounds” (2021).
# The list shows a part of the results. Measured potencies and affinities stand elsewhere.
# Test system: Pseudomonas aeruginosa
# Details: Concentration 20 uM; ASSAY_TEST Inhibition of Bacterial Growth; detection method Absorption (OD600); MEDIA CAMHB; plate type 384well; NBS; CORNING #3640; time 18 hr
row,Compound,Inhibition
1,O=S(=O)(c1ccc(Cl)cc1)N1CCN(C(=S)NCc2ccco2)CC1,6.62%
2,Cc1ccc2[nH]c3c(NCCN(C)C)ncnc3c2c1,12.5%
3,CC1=NN(c2nc3ccccc3s2)C(=O)C1Cc1cccc2ccccc12 (centres undefined),9.22%
4,CN1CCN(c2nccc3[nH]c(-c4cccc(F)c4)cc23)CC1,11.09%
5,O=C(NCCN1CCCC1)c1cc(NCCCCN2CCC(F)(F)CC2)nc2ccc(Cl)cc12,19.88%
6,COc1cncc(-c2cncc(N3CCN(c4ccncc4)CC3)n2)c1,17.14%
7,O=C(NCc1ccco1)N1CCN(Cc2ccc(Cl)s2)CC1,3.22%
8,COc1cccc(OC)c1C(=O)Nc1ccc(Cl)c(-c2nc3ccccc3s2)c1,1.66%
9,CC1CC1C(=O)NC1CCN(CC2(c3ccccc3)CCCCC2)CC1 (centres undefined),11.29%
10,COc1cc(-c2cc(-c3ccc(S(C)(=O)=O)cc3)cnc2N)ccc1O,6.78%
11,CNC1C(OC2C(OC3C(O)C(O)C(NC(=N)N)C(O)C3NC(=N)N)OC(C)C2(O)C=O)OC(CO)C(O)C1O.CNC1C(OC2C(OC3C(O)C(O)C(NC(=N)N)C(O)C3NC(=N)N)OC(C)C2(O)C=O)OC(CO)C(O)C1O.O=S(=O)(O)O.O=S(=O)(O)O.O=S(=O)(O)O (centres undefined),2.72%
12,CCN(CC)S(=O)(=O)c1ccc(Cl)c(C(=O)Nc2ccc3nc(C)sc3c2)c1,0.72%
13,O=C1[C@@H](Oc2ccccc2)[C@@H](c2ccc(Cl)cc2)N1CCn1cnc2c(NCc3ccccc3)ncnc21,-2.26%
14,N#Cc1nc(-c2ccccc2F)oc1NCCc1ccccc1,8.81%
15,Cc1ccc2nc(C)c(-c3ccn(Cc4ccccc4)n3)n2c1,14.57%
16,CN(C)c1cc(NC(=O)Nc2ccccc2)c2ccccc2n1,15.22%
17,Cc1cc(NC(=O)c2ccc(S(=O)(=O)N(Cc3ccccc3)C(C)C)cc2)no1,5.24%
18,CC1=Nc2ccc(Cl)cc2C(c2ccccc2)N1CCNC(=O)CN(C)C (centres undefined),16.48%
19,O=C1N(Cc2cc3ccccc3s2)CC2CN(Cc3ccccc3)CCN12 (centres undefined),3.81%
20,Cl.Cn1ccnc1CNCCS(=O)(=O)c1cccc(Nc2ccc(-c3cccc(F)c3)cn2)c1,7.62%
21,Clc1ccc(Cl)c(CO[C@H]2CCCC[C@@H]2n2ccnc2)c1,20.5%
22,Cc1cc(C)n(-c2ccc(NC(=O)C3CCN(Cc4cnc(C)s4)CC3)cc2)n1,8.59%
23,c1ccc(-c2[nH]c3ccccc3c2C(c2ccccn2)N2CCCC2)cc1 (centres undefined),11.79%

# 5 neighbouring entries out of the list so far:
row,Compound,Inhibition
18,CC1=Nc2ccc(Cl)cc2C(c2ccccc2)N1CCNC(=O)CN(C)C (centres undefined),16.48%
19,O=C1N(Cc2cc3ccccc3s2)CC2CN(Cc3ccccc3)CCN12 (centres undefined),3.81%
20,Cl.Cn1ccnc1CNCCS(=O)(=O)c1cccc(Nc2ccc(-c3cccc(F)c3)cn2)c1,7.62%
21,Clc1ccc(Cl)c(CO[C@H]2CCCC[C@@H]2n2ccnc2)c1,20.5%
22,Cc1cc(C)n(-c2ccc(NC(=O)C3CCN(Cc4cnc(C)s4)CC3)cc2)n1,8.59%

# Additional entries follow:

row,Compound,Inhibition
1,COc1ccc(-c2cncc3ccc(C(=O)NCCCn4ccnc4)nc23)cc1,5.81%
2,CS(=O)(=O)Cc1nc2ccccc2oc1=O,11.13%
3,OCCc1ccc(Nc2nccc(-c3nnc4ccccn34)n2)cc1,16.52%
4,COc1ccc(Cn2cnc3c(-c4ccco4)nc(Cl)nc32)cc1,15.02%
5,Cl.O=C(Nc1ccc(N2CCNCC2)nc1)c1oc(-c2ccccc2)nc1C(F)(F)F,-17.92%
6,CCC(Sc1nc2ccccc2o1)C(=O)Nc1nnc(C)s1 (centres undefined),-5.63%
7,N=C(N)c1ccc(-c2cc(-c3ccccc3)on2)cc1,13.36%
8,O=C(NCc1cc(Cl)cc(Cl)c1)c1c(C(F)(F)F)nc2ccccn12,15.53%
9,Cc1cccc(NC(=O)c2cc(S(=O)(=O)N(C)c3ccc(F)cc3)ccc2Cl)n1,11.78%
10,C[C@H](c1ccc2c(c1)CCCC2)N(C)c1ncc2c(N)nc(N)nc2n1,13.44%
11,Cc1ccccc1CN1CCC(O)(c2ccc(Cl)c(C(F)(F)F)c2)CC1,9.76%
12,Cl.NCCCC(N)(C(=O)O)C(F)F.O (centres undefined) [EFLORNITHINE HYDROCHLORIDE],7.21%
13,Cc1ccc(C(=O)Nc2ccc(S(=O)(=O)O)c3cc(S(=O)(=O)O)cc(S(=O)(=O)O)c23)cc1NC(=O)c1cccc(NC(=O)Nc2cccc(C(=O)Nc3cc(C(=O)Nc4ccc(S(=O)(=O)O)c5cc(S(=O)(=O)O)cc(S(=O)(=O)O)c45)ccc3C)c2)c1 [SURAMIN],15.45%
14,Cc1cc(C(=O)Nc2cnn(Cc3ccc(Cl)cc3Cl)c2)no1,7.05%
15,COc1ccccc1CNC(=O)c1cc(C2CC2)nc2c1cnn2C(C)C,5.5%
16,CNC(=O)c1nn(C)c2c1C(C)(C)Cc1cnc(Nc3ccc(N4CCN(C)CC4)cc3)nc1-2 [MILCICLIB],5.97%
17,CCOc1ccccc1C(=O)Nc1cccc(-c2nc3ncccn3c2C)c1,8.14%
18,COc1cc(NC(=O)Cc2nn(C)c(=O)c3ccccc23)ccc1Cl,14.21%
19,CCCCc1ccc(NC(=O)Nc2ccc(O[C@H]3CCCC[C@@H]3N(C)c3ccccc3)c(F)c2)cc1,10.53%
20,CC(C)C(NC(=O)Cc1cccc2ccccc12)C(=O)Nc1cccc(C#N)c1 (centres undefined),10.91%
21,CC(C)(C)OC(=O)N1CCC(Cn2nc(-c3cnc4ccccc4c3)c3c(N)ncnc32)CC1,13.86%
22,O=C(NC1CC1)c1ccc(N2CCC(Cc3ccccc3)CC2)nc1,20.01%
23,COc1ccc(C2(C(=O)Nc3ccc(Br)cc3)CCCC2)cc1,22.51%

row,Compound,Inhibition
1,O=C(NCc1ccoc1)N1CCN(Cc2ccc3c(c2)OCO3)CC1,8.46%
2,Cc1nn2c(O)c3c(nc2c1-c1ccc(F)cc1)CCCC3,14.05%
3,Clc1ccc(CCNc2cc(-c3ccccc3)nc3ncnn23)cc1,7.99%
4,N#Cc1nc(-c2ccccc2)oc1S(=O)(=O)c1ccc(Cl)cc1,0.82%
5,Clc1ccc(-n2cc(COc3ccnc4ccccc34)nn2)cc1,16.23%
6,Cl.c1ccc(Oc2ccc(-c3cc(N4CCNCC4)[nH]n3)cc2)cc1,-3.7%
7,CNC(=O)CNc1nc(-c2ccccn2)nc2scc(-c3ccccc3)c12,15.13%
8,COc1cccc(-c2cc3c(Nc4cccnc4)nccc3[nH]2)c1,7.93%
9,O=C(NC1CCCCC1)N1CCN(Cc2ccc3c(c2)OCO3)CC1,11.6%
10,COc1ccc(OC(C)C(=O)Nc2ccc(Cl)cc2C)cc1 (centres undefined),9.27%
11,CN1CCC(NCc2cccc(-c3ccc(S(=O)(=O)NCc4ccccc4)cc3)c2)CC1,6.61%
12,Cc1nn(C(=O)Nc2cccc(C(F)(F)F)c2)c(C)c1Sc1ncccn1,11.04%
13,CN(C(=O)c1cc2c(-c3cncnc3)cccc2[nH]1)c1ccccc1,15.38%
14,CN(C)CCNC(=O)N1CCCN(c2ncnc3cc(-c4ccccc4)sc23)CC1,14.99%
15,Nc1ncc(Br)cc1-c1nc2cc(Cl)cnc2[nH]1,16.08%
16,Cc1cc(C)cc(COc2ccc3c(C)c(CCC(=O)O)c(=O)oc3c2C)c1,6.69%
17,FC(F)(F)c1ccc(N(c2cccnc2)C2CCN(c3ccc(C(F)(F)F)cn3)CC2)cc1,11.66%
18,Cl.Cl.Cl.NS(=O)(=O)c1cncc(-c2ccc3nccc(-c4cn[nH]c4)c3n2)c1,6.96%
19,O=C(NC1=NCCS1)c1sc2cc(F)ccc2c1Cl,4.99%
20,Cn1ncc2c(N3CCOCC3)nc(NCCc3c[nH]c4ccccc34)nc21 [TDR79432],4.99%
21,O=C(NCCN1CCCC1)c1cc(NCCN2CCOCC2)nc2ccc(Cl)cc12,15.64%
22,O=C(Cn1ccnc1[N+](=O)[O-])NCc1ccccc1 [BENZNIDAZOLE],15.47%
23,O=C(C1CCN(c2nnc(-n3cccc3)s2)CC1)N1CCC(Cc2ccccc2)CC1,16.73%

row,Compound,Inhibition
1,O=C(Nc1c(O)cccc1-c1nc2c(C(=O)O)cccc2o1)c1cc(-c2ccccc2)on1,-13.4%
2,CCOc1ccc(OCC(=O)Nc2cc(C)cc(C)c2)cc1,9.52%
3,CC1(COc2ccc(N3CCC(Oc4ccc(OC(F)(F)F)cc4)CC3)cc2)Cn2cc([N+](=O)[O-])nc2O1 (centres undefined),14.8%
4,CC(C(=O)Nc1ccc2oc(-c3ccncc3)nc2c1)c1ccccc1 (centres undefined),8.01%
5,O=C(Nc1cccc(Cl)c1)c1cnc(N2CCN(c3ccncc3)CC2)c(Cl)c1,16.66%
6,CCN(CC)CCCCCCNc1cc(OC)cc2c(C)ccnc12.Cc1ccc(S(=O)(=O)O)cc1,13.61%
7,C[C@H](C(N)=O)N1CCCC[C@H]1c1ccc(OCc2cccc(F)c2)cc1,17.55%
8,CN1CCC(c2cc(-c3ccncc3)c(-c3ccc(F)cc3)[nH]2)CC1,4.09%
9,CC(C)(C)CN1C(=O)C(c2ccccc2)(c2ccccc2)N=C1N,15.99%
10,CS(=O)(=O)c1cccc(-c2cnc3[nH]cc(-c4ccc(CCC(=O)O)cc4)c3c2)c1,8.64%
11,Cc1cc(OCC(=O)NCc2ccccc2)c2cc(Br)ccc2n1,10.66%
12,CCCS(=O)(=O)N1CCC(CO)(Cc2ccccc2C(F)(F)F)CC1,0.83%
13,Nc1ncnc2c1c(Cc1cccc3ccccc13)nn2CC1CCNCC1,-4.47%
14,C[C@H](C(N)=O)N1CCCC[C@@H]1c1ccc(OCc2cccc(F)c2)cc1,6.37%
15,Cc1ncc(-c2ccnc(Nc3ccc(S(C)(=O)=O)cc3)n2)n1C(C)C [AZD-5438],10.65%
16,Cc1cc(Cl)ccc1NC(=O)CCc1ccc(S(=O)(=O)NCC(C)C)cc1,8.89%
17,Cl.NCC(c1cccs1)S(=O)(=O)c1ccccc1 (centres undefined),-1.2%
18,Cc1cc(C)n2nc(C(=O)Nc3cc(C(F)(F)F)ccc3N3CCOCC3)nc2n1,14.83%
19,O=C(NCCc1ccn(-c2ccccc2)n1)C1CCCCC1,1.15%
20,CN1CCN(c2nccc3nc(-c4ccc(F)c(F)c4)[nH]c23)CC1,20.48%
